41 molecules from PubChem BioAssay AID493014 (National Center for Advancing Translational Sciences (NCATS), 2011) can be followed below.

A short description of this assay: qHTS Assay to Find Inhibitors of Chronic Active B-Cell Receptor Signaling. Particulars: ABC-DLBCL IkBa-CBG/CBR reporter, luminescence ratio (green luciferase fused to IkBa over red control in TMD8 lymphoma cells), 4 h. The source says: NIH Molecular Libraries Probe Production Network [MLPCN] NIH Chemical Genomics Center [NCGC] MLPCN Grant: 1 R03 DA031086-01A1 PI Name: Dr. R. Eric Davis NCGC Assay Overview: Diffuse large B-cell lymphoma (DLBCL) is the most common category of non-Hodgkin lymphoma, with ~20,000 new cases per year in the United States. DLBCL should be regarded as a collection of different neoplasms. Microarray gene expression analysis has defined two principal types of DLBCL, named for their similarity to normal B cell stages or activation states: a germinal center B-cell (GCB) type, and an activated B-cell (ABC) type. In ABC-DLBCL, a constitutive high-level activity of the NF-kappaB family of transcription factors has been observed (1) and NF-kappaB target genes are more highly expressed in ABC primary tumors than in GCB tumors. Functional studies have shown a constitutive high-level activity of the IkappaB (inhibitor of kappa-B) kinase (IKK) complex. […] Further analysis of DLBCL primary tumors for NF-kappaB target gene expression imply that although CARD11 is required for constitutive IKK activity in all ABC-DLBCL lines, mutations in CARD11 may be the root cause of IKK activation only in lines or tumors with such mutations. In other words, CARD11 mutations may explain NF-kappaB activation in only 10% of ABC-DLBCL cases. […] This process has been termed 'chronic active BCR signaling' (CABS). The goal of this screen is to find small-molecule inhibitors of the CABS pathway found in ABC-DLBCL lines using a cell-based assay that measures IkappaBalpa stability, which has already been extensively validated in the OCI-Ly3 line (PubChem AID:445; REF: 4). […] The assay uses green (CBG68) and red (CBR) emitting beetle luciferases [Chroma-GloTM developed by Promega Corp.] where the green luciferase is fused to IkappaBalpha and the red luciferase is present in its native state. Both luciferase genes are stably present in the TMD8 human ABC DLBCL cell line, but their expression is under the control of tetracycline-inducible promoters. Following the addition of doxycycline to induce expression of the luciferases, the green luminescence in control cultures rises only slowly because the CBG fusion partner IkappaBalpha is targeted by IKK activity for rapid degradation. In contrast, green luminescence rises rapidly in the presence of proteasome inhibitors or IKK inhibitors. The rise in red luminescence of CBR is not affected by proteasome or IKK inhibitors, and serves as normalization for cell number and nonspecific effects. Compounds were screened as a concentration-titration series that ranged from 46 uM to 3 nM.
NCGC Assay Protocol Summary: Cells were seeded in 1536-well plates at 5000 cells/4uL in IMDM medium containing 0.5% FBS, w/o phenol red, 1% penicillin/streptomycin. Then, 23 nL of compounds or DMSO were delivered to each well using a pin tool. One uL 20ng/ml doxycycline was then dispensed into white solid 1536-well plates and the plates were incubated at 37C/5% C02 in a cell incubator for 4 hrs. Then 4 uL luminescent substrate mix (in-house prepared: 150 mM Tris-Cl, pH 7.6, 3 mM MgCl2, 1% Triton X-100, 5 mM DTT, 0.2 mM CoA, 0.15 mM ATP, 5 mM D-luciferin, final concentrations) was added to each well. The plate was incubated at r.t. for 10-15 min. The plates were measured on a ViewLux plate reader for green luminescence (540/20 nm filter) and red luminescence (618/8 nm filter). The green and red luminescent signals were corrected for red and green luminescence filter overlap using previously determined filter calibration constants (determined using the procedure outlined in the Promega Technical Manual; REF 4). The %Activity was determined from the ratio of corrected green/red luminescent values. MG132 were used as control. […] Red luminescent %Activity was normalized to the difference between red luminesence in basal cells (0%Activity) and zero luminescence (-100% Activity). […]

Where [1] appears, read: measured here: IkBa-CBG green luminescence.
Where [2] appears, read: measured here: CBR red luminescence, cell number.

The other results are listed elsewhere or left out. Shown are side measurements of this screen, not its main read-out; they come without a call. The list favours compounds with an active or inconclusive main result. Potencies come from curve fits of mixed quality, noted in brackets.

For the molecule `O=C(Nc1nccs1)c1ccc(Br)o1`, the half-maximal activity concentration (AC50) (commonly the midpoint of the concentration-response curve, whichever way the signal moves) under setting [1] is 5.8 µM [rising, full curve].

In the case of `COc1ccccc1C(=O)Nc1nc2ccccc2s1`, under setting [2], the AC50 is 35.5 µM [falling, partial curve, poor fit].

As for `CC1CCC2(CC1)SCC(=O)N2c1ccc(F)cc1` (stereo not drawn), the AC50 under setting [2] was 1.58 µM [falling, partial curve, poor fit].

Consider `O=C(O)CS/C(=C\c1ccc(F)cc1)c1nc2ccccc2s1`, for which the half-maximal activity concentration (AC50) under setting [2] is 15.8 µM [falling, partial curve, poor fit].

For `COC(=O)NC(=S)Nc1ccc(Oc2ccc(Cl)cc2Cl)c(Cl)c1`, the concentration at half-maximal activity (AC50) under setting [2] was 29.1 µM [rising, single point].

In the case of `COc1ccc(CNC(=O)CSc2nnc(Cn3nnc4ccccc43)n2C)cc1`, the AC50 under setting [2] was 29.1 µM [falling, single point].

Turning to `Cc1cc(OCC(=O)Nc2cccc(S(=O)(=O)NC3=NCCCCC3)c2)ccc1Cl`, under setting [2], the half-maximal activity concentration (AC50) is 10.3 µM [falling, partial curve, poor fit].

`O=Cc1cccc(Oc2ccc([N+](=O)[O-])cc2[N+](=O)[O-])c1`: the half-maximal activity concentration (AC50) reads like this: under setting [2], 14.1 µM [falling, single point]; under setting [1], 35.5 µM [falling, single point].

As to `Cc1[nH]nc2c1C(c1cccs1)C(C#N)=C(N)O2` (stereo not drawn), the half-maximal activity concentration (AC50) under setting [2] is 11.2 µM [falling, partial curve].

With `O=C(CCCc1nc(-c2ccccc2Cl)no1)NC1CCCCC1`, the AC50 under setting [2] was 1.64 µM [rising, full curve, poor fit].

Consider `CCc1cc(C(=O)Cc2cnn(-c3ccccc3)c2)c(O)cc1O`, for which the AC50 under setting [2] was 3.55 µM [rising, full curve, poor fit].

Consider `C/C(=N/NC(=O)CSc1ccccn1)c1ccc([N+](=O)[O-])cc1`, for which the half-maximal activity concentration (AC50) under setting [2] was 25.9 µM [rising, single point].

For `CCN1/C(=C/c2ccc3ccc(C)cc3[n+]2CC)Sc2ccccc21`, under setting [1], the AC50 was 23.1 µM [rising, partial curve, poor fit].

Take `CCc1nc(C)cn1S(=O)(=O)c1cc(Br)ccc1OC`: the concentration at half-maximal activity (AC50) under setting [2] was 6.31 µM [falling, full curve, poor fit].

Turning to `CCOC(=O)c1c(C)nn(-c2ccc(NC(=O)c3cccs3)cc2)c1C`, the AC50 under setting [2] is 35.5 µM [falling, single point].

Turning to `Clc1ccc(C2=NNC(=NCC3CCCO3)SC2)cc1` (stereo not drawn), the AC50 is 16.4 µM [falling, single point] under setting [2] and 20.6 µM [falling, single point] under setting [1].

Regarding `CCOc1ccccc1Nc1ccc(C(=O)O)cc1[N+](=O)[O-]`, the concentration at half-maximal activity (AC50) under setting [1] was 12.6 µM [rising, partial curve, poor fit].

As for `C=CCn1c(SCc2ccc(F)cc2)nnc1-c1sc2nc(C)cc(C)c2c1N`, under setting [2], the AC50 was 17.8 µM [rising, single point].

On to `CCC1CCCCN1S(=O)(=O)c1ccc(NC(=O)C2CCN(C(=O)c3ccco3)CC2)cc1` (stereo not drawn), for which, under setting [2], the AC50 is 5.01 µM [rising, single point].

As to `COc1ccc(C(=O)COC(=O)/C=C/c2ccccc2)c(OC)c1`, under setting [2], the AC50 is 5.8 µM [rising, full curve].

`COc1cc(Cl)cc(/C=C/c2ccc3cccc(O)c3n2)c1OC`: the half-maximal activity concentration (AC50) under setting [2] was 12.6 µM [rising, partial curve, poor fit].

For `COc1ccccc1NS(=O)(=O)c1cccc(NC(=O)c2ccc3ccccc3n2)c1`, under setting [2], the concentration at half-maximal activity (AC50) was 0.146 µM [rising, full curve, poor fit].

`c1ccc(-c2noc(CN3CCN(c4cnccn4)CC3)n2)cc1`: the AC50 under setting [2] was 0.224 µM [rising, full curve, poor fit].

For the molecule `O=C(CSc1nc2[nH]c(=O)cc(O)c2s1)Nc1nccs1`, under setting [2], the AC50 is 29.1 µM [rising, single point].

Consider `O=C(c1ccncc1)N1N=C(c2ccc(Cl)cc2)CC1c1ccccc1O` (stereo not drawn), for which, under setting [2], the concentration at half-maximal activity (AC50) is 0.126 µM [falling, full curve].

Take `COC(=O)CNC(c1ccccc1)c1cc(C)ccc1NC(=O)CNC(=O)OCc1ccccc1` (stereo not drawn): the half-maximal activity concentration (AC50) under setting [2] was 8.2 µM [falling, partial curve].

`O=C(c1cccs1)N1CCN(C/C=C/c2ccccc2)CC1`: the AC50 under setting [2] is 18.4 µM [rising, partial curve, poor fit].

Turning to `CCCNC(=O)COC(=O)/C=C/c1ccco1`, under setting [2], the concentration at half-maximal activity (AC50) is 0.00411 µM [falling, full curve, poor fit].

As to `Cc1cccc(-c2ccc3ncnc(NCc4cccs4)c3c2)c1`, the AC50 under setting [2] was 32.6 µM [falling, single point].

On to `CCCCCOc1ccc(C(=O)N(Cc2ccccc2)C2CCS(=O)(=O)C2)cc1` (stereo not drawn), for which the AC50 under setting [2] is 6.31 µM [rising, single point].

In the case of `Cc1ccc(-n2c(SCC(=O)NCCN3C(=O)CSC3=O)nnc2-c2cccc(C)c2)cc1`, the concentration at half-maximal activity (AC50) under setting [2] is 0.146 µM [rising, full curve, poor fit].

With `Cc1ccccc1NC(=O)NC(N)=O`, the half-maximal activity concentration (AC50) under setting [2] was 0.224 µM [rising, full curve, poor fit].

In the case of `N#Cc1cccc(NC(=O)NCCc2c[nH]c3ccccc23)c1`, the concentration at half-maximal activity (AC50) under setting [2] is 0.092 µM [rising, full curve, poor fit].

As to `COc1ccccc1CN(C)C(=O)c1ccc(S(=O)(=O)Nc2c(C)n(C)n(-c3ccccc3)c2=O)cc1`, under setting [2], the concentration at half-maximal activity (AC50) was 29.1 µM [rising, single point].

With `O=C(CSc1nnc(Cc2ccccc2)o1)Nc1ccc(N2CCOCC2)cc1`, the AC50 under setting [2] is 6.51 µM [rising, partial curve, poor fit].

With `Cc1csc(NC(=O)C(Cc2ccccc2)n2cccc2)n1` (stereo not drawn), the half-maximal activity concentration (AC50) under setting [1] was 18.4 µM [rising, partial curve, poor fit].

`Cn1c(=O)c2c(nc(SCC(=O)Nc3ccccc3)n2C)n(C)c1=O`: the half-maximal activity concentration (AC50) under setting [2] is 5.8 µM [falling, single point].

`O=C(CSCc1ccc(Cl)cc1)NCCSCc1ccco1`: the AC50 under setting [2] is 15.8 µM [falling, single point].

For the molecule `Cc1noc(C)c1S(=O)(=O)N(C)C[C@H]1Oc2ccc(NC(=O)CCC(F)(F)F)cc2C(=O)N([C@H](C)CO)C[C@@H]1C`, the AC50 under setting [2] is 16.4 µM [rising, partial curve, poor fit].

For `Cc1cc(NC(=O)CCC(=O)N(c2ccccc2)C(C(=O)NCC2CCCO2)c2cccnc2)no1` (stereo not drawn), the AC50 under setting [2] is 14.1 µM [falling, single point].

For `Cn1cc(CN2CCN(Cc3cccnc3)CC2)c(-c2ccc3c(c2)OCCO3)n1`, the concentration at half-maximal activity (AC50) under setting [2] was 15.8 µM [falling, partial curve, poor fit].
